{
  "source": "the supplement of paper PMC10689618",
  "note": "Structures can show the parent of a compound that is named as a salt. The list shows a part of the results. Repeats are few or missing, and single values can be far off.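 Primary human fetal astrocytes engulfed labelled rat cortical synaptosomes, measured as a red/green ratio corrected for calcein live-cell signal and scaled to the plate median. Toxicity meant calcein falling over 30%; decreased phagocytosis meant below 70% of median above 5 µM.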",
  "data": [
    {"tested_on": "Human fetal astrocytes", "experiment": "loss of total cells relative to no-compound high-control median (toxicity); higher = more toxic (fewer cells)", "conditions": "1.39 µM; 24 h", "units": {"loss of total cells": "%"}, "values": [
      {"compound": "O=[N+]([O-])c1cccc2c(Br)[nH]nc12", "note": "[3-Bromo-7-nitroindazole]", "loss of total cells": 0.4},
      {"compound": "CCC(C)N(C)C(=O)c1cc2ccccc2c(-c2ccccc2Cl)n1", "note": "(stereo not drawn)", "loss of total cells": -30.5},
      {"compound": "OC(CN1CCN(c2cccc(Cl)c2)CC1)C(c1ccccc1)c1ccccc1", "note": "(stereo not drawn)", "loss of total cells": -14.7},
      {"compound": "CSC(=N)N", "note": "[S-Methylisothiourea hemisulfate]", "loss of total cells": -16.6},
      {"compound": "Cc1ccccc1N1C(=O)c2cc(S(N)(=O)=O)c(Cl)cc2NC1C", "note": "(stereo not drawn) [Metolazone]", "loss of total cells": -4.3},
      {"compound": "CC(C)(C)NCC(O)c1ccc(O)c(CO)c1", "note": "(stereo not drawn) [Albuterol hemisulfate]", "loss of total cells": -5.9},
      {"compound": "C[C@]12CC[C@@H]3c4ccc(O)cc4CC[C@H]3[C@@H]1CCC2=O", "note": "[Estrone]", "loss of total cells": 12.1},
      {"compound": "Nc1nc2[nH]c(=O)cnc2c(=O)[nH]1", "note": "[Isoxanthopterin]", "loss of total cells": -21.3},
      {"compound": "CC[N+](CC)(CC)CC", "note": "[Tetraethylammonium chloride]", "loss of total cells": -15.2},
      {"compound": "O=C(CCCN1CC=C(n2c(=O)[nH]c3ccccc32)CC1)c1ccc(F)cc1", "note": "[Droperidol]", "loss of total cells": -1.3},
      {"compound": "CCn1c(=O)[nH]c2cc(Cl)c(Cl)cc21", "loss of total cells": 26.4},
      {"compound": "C=C[C@H]1CN2CC[C@H]1C[C@H]2[C@H](O)c1ccnc2ccc(OC)cc12", "note": "[Quinine sulfate]", "loss of total cells": -12.1},
      {"compound": "CC(C)C(=O)Nc1ccc([N+](=O)[O-])c(C(F)(F)F)c1", "note": "[Flutamide]", "loss of total cells": -17.2},
      {"compound": "NCCNC(=O)c1ccc(Cl)cc1", "note": "[Ro 16-6491 hydrochloride]", "loss of total cells": -14},
      {"compound": "Cn1c(=O)c2[nH]c(-c3ccc(S(=O)(=O)O)cc3)nc2n(C)c1=O", "note": "[8-(p-Sulfophenyl)theophylline]", "loss of total cells": -3.3},
      {"compound": "CN(C(=O)CCCOc1ccc2[nH]c(=O)ccc2c1)C1CCCCC1", "note": "[Cilostamide]", "loss of total cells": -12.8},
      {"compound": "Oc1ncnc2[nH]ncc12", "note": "[Allopurinol]", "loss of total cells": 0.4},
      {"compound": "N=C(N)c1ccccc1", "note": "[Benzamidine hydrochloride]", "loss of total cells": -19.8},
      {"compound": "COc1ccc(CCN(C)CCCC(C#N)(c2cc(OC)c(OC)c(OC)c2)C(C)C)cc1OC", "note": "(racemic) [(±)-Methoxyverapamil hydrochloride]", "loss of total cells": -21.3},
      {"compound": "O=[N+]([O-])c1cc2nc(O)c(O)nc2cc1[N+](=O)[O-]", "loss of total cells": 8.8},
      {"compound": "Nc1ncnc2c1nc(Br)n2C1OC2COP(=O)(O)O[C@@H]2C1O", "note": "(stereo partly drawn) [8-Bromo-cAMP sodium]", "loss of total cells": -5.5},
      {"compound": "CCOC(=O)C1=C(C)NC(C)=C(C(=O)OC)C1c1cccc([N+](=O)[O-])c1", "note": "(stereo not drawn) [Nitrendipine]", "loss of total cells": -10},
      {"compound": "CC1(NC(=O)CBr)CCC(C(C)(C)NCC(O)COc2cccc3[nH]ccc23)CC1", "note": "(racemic) [(±)-Pindobind]", "loss of total cells": -4.7},
      {"compound": "COc1ccc2c(c1)c(CC(=O)N1CCOCC1)c(C)n2C(=O)c1ccc(Cl)cc1", "note": "[Indomethacin morpholinylamide]", "loss of total cells": 0.5},
      {"compound": "CO/N=C(\\C(=O)N[C@@H]1C(=O)N2C(C(=O)O)=C(COC(C)=O)CS[C@H]12)c1csc(N)n1", "note": "[Cefotaxime sodium]", "loss of total cells": -22},
      {"compound": "COc1cc(NS(C)(=O)=O)ccc1Nc1c2ccccc2nc2ccccc12", "note": "[Amsacrine hydrochloride]", "loss of total cells": -4.4},
      {"compound": "OC(CN1CCC(Cc2ccc(F)cc2)CC1)c1ccc(Cl)cc1", "note": "(stereo not drawn) [Eliprodil]", "loss of total cells": 3.8},
      {"compound": "CC(C)NC[C@@H](O)COc1ccc(CC(N)=O)cc1", "note": "[R(+)-Atenolol]", "loss of total cells": -9.2},
      {"compound": "CNC(=O)c1cc2c(cn1)[nH]c1ccccc12", "note": "[N-Methyl-beta-carboline-3-carboxamide]", "loss of total cells": -24.7},
      {"compound": "CN1CCC[C@@H]1c1cccnc1.Cc1ccc(C(=O)O[C@H](C(=O)O)[C@@H](OC(=O)c2ccc(C)cc2)C(=O)O)cc1", "note": "[(+)-Nicotine (+)-di-p-toluoyl tartrate]", "loss of total cells": -15.6},
      {"compound": "O=C(O)c1cc(=O)c2c(Cl)cc(Cl)cc2[nH]1", "note": "[5,7-Dichlorokynurenic acid]", "loss of total cells": -19.7},
      {"compound": "CNC(=O)[C@H]1O[C@@H](n2cnc3c(NCc4cccc(I)c4)ncnc32)[C@H](O)[C@@H]1O", "loss of total cells": 3.3},
      {"compound": "Cn1ccc2cc3c(cc21)CCN3C(=O)Nc1cccnc1", "loss of total cells": -22},
      {"compound": "CC[C@H](NC(=O)c1c(C)c(-c2ccccc2)nc2ccccc12)c1ccccc1", "loss of total cells": -5.1},
      {"compound": "Oc1cc2c(c(Cl)c1O)CCNCC2c1ccccc1", "note": "(racemic) [(±)-6-Chloro-PB hydrobromide]", "loss of total cells": -4.7},
      {"compound": "CCOC(=O)c1cnc2c(cnn2CC)c1NN=C(C)C", "note": "[Etazolate hydrochloride]", "loss of total cells": 2.1},
      {"compound": "CC(C)=CCC/C(C)=C/CC/C(C)=C/CSc1ccccc1C(=O)O", "note": "[Farnesylthiosalicylic acid]", "loss of total cells": 5.4},
      {"compound": "CC(=O)NCCc1c[nH]c2ccc(O)cc12", "note": "[N-Acetyl-5-hydroxytryptamine]", "loss of total cells": -11},
      {"compound": "O=c1[nH]c2cc(Cl)ccc2c(O)c1-c1cccc(Oc2ccccc2)c1", "loss of total cells": -24.2}
    ]},
    {"tested_on": "Human fetal astrocytes", "experiment": "loss of total cells relative to no-compound high-control median (toxicity); higher = more toxic (fewer cells)", "conditions": "2.78 µM; 24 h", "units": {"loss of total cells": "%"}, "values": [
      {"compound": "O=[N+]([O-])c1cccc2c(Br)[nH]nc12", "note": "[3-Bromo-7-nitroindazole]", "loss of total cells": 6.6},
      {"compound": "CCC(C)N(C)C(=O)c1cc2ccccc2c(-c2ccccc2Cl)n1", "note": "(stereo not drawn)", "loss of total cells": -12},
      {"compound": "OC(CN1CCN(c2cccc(Cl)c2)CC1)C(c1ccccc1)c1ccccc1", "note": "(stereo not drawn)", "loss of total cells": -12.9},
      {"compound": "CSC(=N)N", "note": "[S-Methylisothiourea hemisulfate]", "loss of total cells": 5},
      {"compound": "Cc1ccccc1N1C(=O)c2cc(S(N)(=O)=O)c(Cl)cc2NC1C", "note": "(stereo not drawn) [Metolazone]", "loss of total cells": 4.1},
      {"compound": "CC(C)(C)NCC(O)c1ccc(O)c(CO)c1", "note": "(stereo not drawn) [Albuterol hemisulfate]", "loss of total cells": -12.9},
      {"compound": "C[C@]12CC[C@@H]3c4ccc(O)cc4CC[C@H]3[C@@H]1CCC2=O", "note": "[Estrone]", "loss of total cells": -20.5},
      {"compound": "Nc1nc2[nH]c(=O)cnc2c(=O)[nH]1", "note": "[Isoxanthopterin]", "loss of total cells": -10.4},
      {"compound": "CC[N+](CC)(CC)CC", "note": "[Tetraethylammonium chloride]", "loss of total cells": -1.5},
      {"compound": "O=C(CCCN1CC=C(n2c(=O)[nH]c3ccccc32)CC1)c1ccc(F)cc1", "note": "[Droperidol]", "loss of total cells": 0.9},
      {"compound": "CCn1c(=O)[nH]c2cc(Cl)c(Cl)cc21", "loss of total cells": -9.4},
      {"compound": "C=C[C@H]1CN2CC[C@H]1C[C@H]2[C@H](O)c1ccnc2ccc(OC)cc12", "note": "[Quinine sulfate]", "loss of total cells": -41},
      {"compound": "CC(C)C(=O)Nc1ccc([N+](=O)[O-])c(C(F)(F)F)c1", "note": "[Flutamide]", "loss of total cells": -8.5},
      {"compound": "NCCNC(=O)c1ccc(Cl)cc1", "note": "[Ro 16-6491 hydrochloride]", "loss of total cells": -48.8},
      {"compound": "Cn1c(=O)c2[nH]c(-c3ccc(S(=O)(=O)O)cc3)nc2n(C)c1=O", "note": "[8-(p-Sulfophenyl)theophylline]", "loss of total cells": -18.9},
      {"compound": "CN(C(=O)CCCOc1ccc2[nH]c(=O)ccc2c1)C1CCCCC1", "note": "[Cilostamide]", "loss of total cells": -24.4},
      {"compound": "Oc1ncnc2[nH]ncc12", "note": "[Allopurinol]", "loss of total cells": -17.7},
      {"compound": "N=C(N)c1ccccc1", "note": "[Benzamidine hydrochloride]", "loss of total cells": -14.4},
      {"compound": "COc1ccc(CCN(C)CCCC(C#N)(c2cc(OC)c(OC)c(OC)c2)C(C)C)cc1OC", "note": "(racemic) [(±)-Methoxyverapamil hydrochloride]", "loss of total cells": 17.6},
      {"compound": "O=[N+]([O-])c1cc2nc(O)c(O)nc2cc1[N+](=O)[O-]", "loss of total cells": -12},
      {"compound": "Nc1ncnc2c1nc(Br)n2C1OC2COP(=O)(O)O[C@@H]2C1O", "note": "(stereo partly drawn) [8-Bromo-cAMP sodium]", "loss of total cells": -5.1},
      {"compound": "CCOC(=O)C1=C(C)NC(C)=C(C(=O)OC)C1c1cccc([N+](=O)[O-])c1", "note": "(stereo not drawn) [Nitrendipine]", "loss of total cells": -1.4},
      {"compound": "CC1(NC(=O)CBr)CCC(C(C)(C)NCC(O)COc2cccc3[nH]ccc23)CC1", "note": "(racemic) [(±)-Pindobind]", "loss of total cells": -20.1},
      {"compound": "COc1ccc2c(c1)c(CC(=O)N1CCOCC1)c(C)n2C(=O)c1ccc(Cl)cc1", "note": "[Indomethacin morpholinylamide]", "loss of total cells": 12.2},
      {"compound": "CO/N=C(\\C(=O)N[C@@H]1C(=O)N2C(C(=O)O)=C(COC(C)=O)CS[C@H]12)c1csc(N)n1", "note": "[Cefotaxime sodium]", "loss of total cells": -9.9},
      {"compound": "COc1cc(NS(C)(=O)=O)ccc1Nc1c2ccccc2nc2ccccc12", "note": "[Amsacrine hydrochloride]", "loss of total cells": 4.5},
      {"compound": "OC(CN1CCC(Cc2ccc(F)cc2)CC1)c1ccc(Cl)cc1", "note": "(stereo not drawn) [Eliprodil]", "loss of total cells": -5.1},
      {"compound": "CC(C)NC[C@@H](O)COc1ccc(CC(N)=O)cc1", "note": "[R(+)-Atenolol]", "loss of total cells": -12.3},
      {"compound": "CNC(=O)c1cc2c(cn1)[nH]c1ccccc12", "note": "[N-Methyl-beta-carboline-3-carboxamide]", "loss of total cells": -6.8},
      {"compound": "CN1CCC[C@@H]1c1cccnc1.Cc1ccc(C(=O)O[C@H](C(=O)O)[C@@H](OC(=O)c2ccc(C)cc2)C(=O)O)cc1", "note": "[(+)-Nicotine (+)-di-p-toluoyl tartrate]", "loss of total cells": -4.1},
      {"compound": "O=C(O)c1cc(=O)c2c(Cl)cc(Cl)cc2[nH]1", "note": "[5,7-Dichlorokynurenic acid]", "loss of total cells": -3.4},
      {"compound": "CNC(=O)[C@H]1O[C@@H](n2cnc3c(NCc4cccc(I)c4)ncnc32)[C@H](O)[C@@H]1O", "loss of total cells": 18.6},
      {"compound": "Cn1ccc2cc3c(cc21)CCN3C(=O)Nc1cccnc1", "loss of total cells": -24.9},
      {"compound": "CC[C@H](NC(=O)c1c(C)c(-c2ccccc2)nc2ccccc12)c1ccccc1", "loss of total cells": 1.8},
      {"compound": "Oc1cc2c(c(Cl)c1O)CCNCC2c1ccccc1", "note": "(racemic) [(±)-6-Chloro-PB hydrobromide]", "loss of total cells": -20.1},
      {"compound": "CCOC(=O)c1cnc2c(cnn2CC)c1NN=C(C)C", "note": "[Etazolate hydrochloride]", "loss of total cells": -1.7},
      {"compound": "CC(C)=CCC/C(C)=C/CC/C(C)=C/CSc1ccccc1C(=O)O", "note": "[Farnesylthiosalicylic acid]", "loss of total cells": -12},
      {"compound": "CC(=O)NCCc1c[nH]c2ccc(O)cc12", "note": "[N-Acetyl-5-hydroxytryptamine]", "loss of total cells": -20.8},
      {"compound": "O=c1[nH]c2cc(Cl)ccc2c(O)c1-c1cccc(Oc2ccccc2)c1", "loss of total cells": 14}
    ]}
  ]
}
